The other results are listed elsewhere or left out. Repeats are few or missing, and single values can be far off.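 Cells were imaged in 1,536-well plates, and nuclei stained with an antibody against cleaved PARP were counted against all DNA-stained nuclei to give the apoptosis fraction. Screening doses were chosen to leave most cells alive, and resting and induced cleaved-PARP levels differ strongly between cell lines.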
What follows are compounds tested on UACC62 (assay: cleaved PARP positive nuclei fraction relative to DMSO control; melanoma cells; higher = more apoptosis). Conditions: library dose: low library concentration; 72 h.
`CO[C@H]1C[C@@H]2CC[C@@H](C)[C@@](O)(O2)C(=O)C(=O)N2CCCC[C@H]2C(=O)O[C@H]([C@H](C)C[C@@H]2CC[C@@H](OCCO)[C@H](OC)C2)CC(=O)[C@H](C)/C=C(\C)[C@@H](O)[C@@H](OC)C(=O)[C@H](C)C[C@H](C)/C=C/C=C/C=C/1C` [everolimus] + CCN(CC)CCCCNc1ncc2cc(-c3cc(OC)cc(OC)c3)c(NC(=O)NC(C)(C)C)nc2n1 [PD173074] (first compound 0.02 µM, partner dose 0.1 µM) was tested, and the “cleaved PARP positive nuclei fraction” value was 246%. For `CO[C@H]1C[C@@H]2CC[C@@H](C)[C@@](O)(O2)C(=O)C(=O)N2CCCC[C@H]2C(=O)O[C@H]([C@H](C)C[C@@H]2CC[C@@H](OCCO)[C@H](OC)C2)CC(=O)[C@H](C)/C=C(\C)[C@@H](O)[C@@H](OC)C(=O)[C@H](C)C[C@H](C)/C=C/C=C/C=C/1C` [everolimus] + Cc1cc(N2CCOCC2)cc2[nH]c(-c3c(NC[C@@H](O)c4cccc(Cl)c4)cc[nH]c3=O)nc12 [BMS536924] (first compound 0.02 µM, partner dose 0.2 µM), the “cleaved PARP positive nuclei fraction” value was 173%. In the case of `CO[C@H]1C[C@@H]2CC[C@@H](C)[C@@](O)(O2)C(=O)C(=O)N2CCCC[C@H]2C(=O)O[C@H]([C@H](C)C[C@@H]2CC[C@@H](OCCO)[C@H](OC)C2)CC(=O)[C@H](C)/C=C(\C)[C@@H](O)[C@@H](OC)C(=O)[C@H](C)C[C@H](C)/C=C/C=C/C=C/1C` [everolimus] + Cn1cc(/C=C2\C(=O)Nc3cccnc32)c2ccccc21 [GW441756] (first compound 0.02 µM, partner dose 0.4 µM), the “cleaved PARP positive nuclei fraction” value is reported as 341%.
